For at least one compound, name, drawing or mass did not settle the structure.
Test system: SNL-induced mechanical hyperalgesia
Experiment: SNL-induced mechanical hyperalgesia model (paw pressure test, PWT)
Type: in vivo, rat
Conditions: dosed orally at 100 mg/kg, vehicle 0.5% methyl cellulose, one hour before testing
Procedure: In the Chung model, the spinal nerve ligation (SNL) model of neuropathic pain is used to produce mechanical hyperalgesia, thermal hyperalgesia, and tactile allodynia in rats. Surgery is performed under isoflurane/O2 inhalation anesthesia. Following induction of anesthesia a 3 cm incision is made and the left paraspinal muscles are separated from the spinous process at the L4-S2 levels. The L6 transverse process is carefully removed with a pair of small rongeurs to identify visually the L4-L6 spinal nerves. The left L5 (or L5 and L6) spinal nerve(s) is (are) isolated and tightly ligated with silk thread. […] The animals can also be assessed for response to noxious thermal stimuli or for tactile allodynia, as described below. […] Sensitivity to noxious mechanical stimuli was measured in animals using the paw pressure test to assess mechanical hyperalgesia. In rats, hind paw withdrawal thresholds (“PWT”), measured in grams, in response to a noxious mechanical stimulus were determined using an analgesymeter (Model 7200, commercially available from Ugo Basile of Italy), as described in Stein (Biochemistry & Behavior 31: 451-455 (1988)). […] PWT was determined once for each rat at each time point. PWT can be measured only in the injured paw, or in both the injured and non-injured paw. […]

Q: How did the “SNL-induced mechanical hyperalgesia in rats” value turn out when `C[C@H](Oc1cc(C(N)=O)nc(-c2ccc(Oc3ccc(C(F)(F)F)cc3)cc2)n1)C(N)=O` [compound 98, (S)-6-((1-amino-1-oxopropan-2-yl)oxy)-2-(4-(4-(trifluoromethylmethyl)phenoxy)phenyl)pyrimidine-4-carboxamide] was run?
A: Its value is “reduced SNL-induced mechanical hyperalgesia”.

— patent US9656968B2, “Pyrimidines as sodium channel blockers” (PURDUE PHARMA L.P, priority 2011, dated 2017)
